Some of the results follow.
Columns and labels:
Assay in all cases: log2 fold change, soluble protein after heating vs DMSO (PISA); higher = thermal stabilisation; K562 lysate, 10 uM; active = over 0.2 and 3.5 SD of the protein, either way, in both replicates (recomputed)
nilotinib = compound: Cc1cn(-c2cc(NC(=O)c3ccc(C)c(Nc4nccc(-c5cccnc5)n4)c3)cc(C(F)(F)F)c2)cn1 [nilotinib]
Method in brief: (§1)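 The values are log-two fold changes in thermal stability compared with solvent controls and come from duplicates. They were obtained by TMTpro 16plex LC-MS/MS, with channel sums equalised, on the supernatant after 21,000xg for 90 min. That supernatant came from crude K562 extract at 1 mg/mL protein treated with 10 μM compound for 30 min, heated for 3 min across 48°C-58°C, pooled and brought to 0.5% NP-40 at 4°C.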

Chains of the proteins cited; added tags and fusions are not shown. Lines headed by an entry give the natural chain unless they say otherwise; changes in a name come on top.
UniProt C9J7I0: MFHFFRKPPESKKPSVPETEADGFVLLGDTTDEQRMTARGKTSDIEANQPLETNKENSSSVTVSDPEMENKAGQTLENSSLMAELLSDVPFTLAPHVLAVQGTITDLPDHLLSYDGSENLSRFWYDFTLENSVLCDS
UniProt Q16880: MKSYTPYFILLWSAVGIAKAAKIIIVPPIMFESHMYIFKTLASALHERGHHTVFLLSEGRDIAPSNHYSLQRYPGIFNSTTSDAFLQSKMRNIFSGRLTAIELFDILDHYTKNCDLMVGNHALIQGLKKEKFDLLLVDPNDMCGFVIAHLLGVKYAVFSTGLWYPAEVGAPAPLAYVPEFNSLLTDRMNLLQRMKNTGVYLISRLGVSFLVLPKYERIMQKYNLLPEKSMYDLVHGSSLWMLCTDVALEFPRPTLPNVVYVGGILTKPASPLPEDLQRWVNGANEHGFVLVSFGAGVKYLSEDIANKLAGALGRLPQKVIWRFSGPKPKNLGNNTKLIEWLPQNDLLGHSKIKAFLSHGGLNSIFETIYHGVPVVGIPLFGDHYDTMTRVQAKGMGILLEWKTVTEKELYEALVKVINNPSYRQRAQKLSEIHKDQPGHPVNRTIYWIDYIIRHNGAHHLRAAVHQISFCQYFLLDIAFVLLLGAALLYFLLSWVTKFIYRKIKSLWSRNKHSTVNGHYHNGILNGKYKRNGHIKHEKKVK
UniProt P22695: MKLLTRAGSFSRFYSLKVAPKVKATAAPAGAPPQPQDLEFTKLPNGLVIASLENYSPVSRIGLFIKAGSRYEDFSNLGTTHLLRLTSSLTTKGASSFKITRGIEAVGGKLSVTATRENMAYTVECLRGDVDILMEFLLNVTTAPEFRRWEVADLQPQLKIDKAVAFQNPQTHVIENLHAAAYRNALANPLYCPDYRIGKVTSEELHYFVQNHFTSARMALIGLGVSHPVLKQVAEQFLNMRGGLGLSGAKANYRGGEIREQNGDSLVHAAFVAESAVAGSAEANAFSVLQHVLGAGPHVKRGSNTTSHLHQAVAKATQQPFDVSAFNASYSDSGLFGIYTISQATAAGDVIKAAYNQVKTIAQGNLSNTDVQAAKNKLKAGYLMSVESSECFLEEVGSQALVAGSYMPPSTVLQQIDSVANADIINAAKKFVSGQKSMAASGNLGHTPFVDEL
UniProt Q9HAU5: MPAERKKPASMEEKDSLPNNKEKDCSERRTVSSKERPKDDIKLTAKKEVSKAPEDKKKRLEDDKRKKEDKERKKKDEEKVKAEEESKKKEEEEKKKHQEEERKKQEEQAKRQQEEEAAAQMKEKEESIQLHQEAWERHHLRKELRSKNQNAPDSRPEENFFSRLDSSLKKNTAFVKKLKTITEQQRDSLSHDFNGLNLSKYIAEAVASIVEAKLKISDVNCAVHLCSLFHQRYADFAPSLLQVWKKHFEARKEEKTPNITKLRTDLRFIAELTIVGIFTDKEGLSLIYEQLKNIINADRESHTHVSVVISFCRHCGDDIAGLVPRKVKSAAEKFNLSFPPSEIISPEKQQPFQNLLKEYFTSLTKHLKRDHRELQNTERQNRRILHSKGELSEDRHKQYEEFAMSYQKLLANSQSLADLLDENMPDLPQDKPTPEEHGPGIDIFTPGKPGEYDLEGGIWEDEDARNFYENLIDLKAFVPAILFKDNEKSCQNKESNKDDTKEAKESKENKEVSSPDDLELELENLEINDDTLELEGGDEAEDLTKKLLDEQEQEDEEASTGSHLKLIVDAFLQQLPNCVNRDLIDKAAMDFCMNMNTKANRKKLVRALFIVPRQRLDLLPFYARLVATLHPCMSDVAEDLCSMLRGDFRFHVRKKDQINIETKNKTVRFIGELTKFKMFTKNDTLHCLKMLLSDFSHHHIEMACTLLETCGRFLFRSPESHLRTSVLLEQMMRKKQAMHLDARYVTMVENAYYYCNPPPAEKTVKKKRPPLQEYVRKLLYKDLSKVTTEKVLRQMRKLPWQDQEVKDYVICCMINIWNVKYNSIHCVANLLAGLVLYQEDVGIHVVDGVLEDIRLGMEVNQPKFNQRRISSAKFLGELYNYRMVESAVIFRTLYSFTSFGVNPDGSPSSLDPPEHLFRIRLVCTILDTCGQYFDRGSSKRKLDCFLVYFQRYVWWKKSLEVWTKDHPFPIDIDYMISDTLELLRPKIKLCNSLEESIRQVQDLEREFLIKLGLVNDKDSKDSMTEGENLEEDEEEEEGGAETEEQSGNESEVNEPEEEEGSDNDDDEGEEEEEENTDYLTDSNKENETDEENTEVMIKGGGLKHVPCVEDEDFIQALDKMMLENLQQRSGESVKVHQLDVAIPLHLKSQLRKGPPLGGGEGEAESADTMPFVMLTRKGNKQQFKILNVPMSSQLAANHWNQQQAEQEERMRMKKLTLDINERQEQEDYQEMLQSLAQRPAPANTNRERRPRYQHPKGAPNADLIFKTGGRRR
UniProt Q9H1C4: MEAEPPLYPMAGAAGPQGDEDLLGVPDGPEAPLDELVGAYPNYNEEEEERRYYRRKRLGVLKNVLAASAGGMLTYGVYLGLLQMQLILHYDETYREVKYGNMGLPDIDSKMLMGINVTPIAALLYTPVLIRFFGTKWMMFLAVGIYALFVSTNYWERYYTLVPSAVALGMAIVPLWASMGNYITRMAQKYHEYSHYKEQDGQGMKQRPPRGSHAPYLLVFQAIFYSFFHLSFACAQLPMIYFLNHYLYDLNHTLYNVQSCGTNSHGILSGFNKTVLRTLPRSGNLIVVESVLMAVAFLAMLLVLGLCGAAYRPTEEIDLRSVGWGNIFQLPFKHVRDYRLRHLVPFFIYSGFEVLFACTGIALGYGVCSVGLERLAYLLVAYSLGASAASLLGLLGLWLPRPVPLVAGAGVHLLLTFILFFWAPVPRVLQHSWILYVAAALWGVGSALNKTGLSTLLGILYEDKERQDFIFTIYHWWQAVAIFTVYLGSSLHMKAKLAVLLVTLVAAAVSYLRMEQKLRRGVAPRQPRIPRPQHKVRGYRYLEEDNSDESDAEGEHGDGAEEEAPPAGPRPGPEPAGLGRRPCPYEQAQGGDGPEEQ
UniProt P50552: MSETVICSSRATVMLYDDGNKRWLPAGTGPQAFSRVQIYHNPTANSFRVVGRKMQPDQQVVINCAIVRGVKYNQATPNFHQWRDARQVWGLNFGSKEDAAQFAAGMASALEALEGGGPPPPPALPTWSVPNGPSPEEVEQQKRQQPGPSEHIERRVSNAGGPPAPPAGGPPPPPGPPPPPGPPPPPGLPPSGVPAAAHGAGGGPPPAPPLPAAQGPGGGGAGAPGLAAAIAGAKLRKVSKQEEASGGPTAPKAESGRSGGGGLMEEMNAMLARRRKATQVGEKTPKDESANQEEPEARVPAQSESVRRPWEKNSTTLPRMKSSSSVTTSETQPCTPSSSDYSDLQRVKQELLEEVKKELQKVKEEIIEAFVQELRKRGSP
UniProt Q9Y3C8: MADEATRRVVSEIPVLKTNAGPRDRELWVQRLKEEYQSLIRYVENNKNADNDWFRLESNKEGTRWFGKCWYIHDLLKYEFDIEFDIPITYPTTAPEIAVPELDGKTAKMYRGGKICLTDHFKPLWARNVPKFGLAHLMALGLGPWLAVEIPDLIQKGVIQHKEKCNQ
UniProt P61758, whole entry, looked up: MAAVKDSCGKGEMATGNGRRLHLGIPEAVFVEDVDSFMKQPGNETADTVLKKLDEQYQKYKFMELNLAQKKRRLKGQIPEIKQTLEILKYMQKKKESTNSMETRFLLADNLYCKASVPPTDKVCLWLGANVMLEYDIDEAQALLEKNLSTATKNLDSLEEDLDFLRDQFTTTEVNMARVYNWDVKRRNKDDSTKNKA
UniProt Q14694, whole entry, looked up: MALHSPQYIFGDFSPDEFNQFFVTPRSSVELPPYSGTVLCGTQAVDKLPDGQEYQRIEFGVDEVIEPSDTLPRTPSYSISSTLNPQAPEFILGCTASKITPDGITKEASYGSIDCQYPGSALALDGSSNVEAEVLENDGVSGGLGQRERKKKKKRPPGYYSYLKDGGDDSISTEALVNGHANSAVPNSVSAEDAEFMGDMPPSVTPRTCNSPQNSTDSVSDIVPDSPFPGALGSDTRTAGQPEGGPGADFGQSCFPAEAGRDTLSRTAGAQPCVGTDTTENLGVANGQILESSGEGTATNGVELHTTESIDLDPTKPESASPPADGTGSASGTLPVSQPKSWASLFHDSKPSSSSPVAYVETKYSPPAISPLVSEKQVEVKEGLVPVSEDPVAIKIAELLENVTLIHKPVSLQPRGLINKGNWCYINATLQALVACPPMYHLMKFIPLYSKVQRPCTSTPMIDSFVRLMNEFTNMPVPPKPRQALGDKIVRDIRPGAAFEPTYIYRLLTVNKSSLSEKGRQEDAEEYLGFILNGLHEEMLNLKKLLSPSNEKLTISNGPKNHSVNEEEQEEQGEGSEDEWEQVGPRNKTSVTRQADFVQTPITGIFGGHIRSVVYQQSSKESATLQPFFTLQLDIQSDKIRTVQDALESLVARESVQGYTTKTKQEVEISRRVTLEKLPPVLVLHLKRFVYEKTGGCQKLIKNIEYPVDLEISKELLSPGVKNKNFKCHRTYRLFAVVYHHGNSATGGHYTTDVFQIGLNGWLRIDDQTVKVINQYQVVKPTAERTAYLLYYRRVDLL
UniProt Q14146: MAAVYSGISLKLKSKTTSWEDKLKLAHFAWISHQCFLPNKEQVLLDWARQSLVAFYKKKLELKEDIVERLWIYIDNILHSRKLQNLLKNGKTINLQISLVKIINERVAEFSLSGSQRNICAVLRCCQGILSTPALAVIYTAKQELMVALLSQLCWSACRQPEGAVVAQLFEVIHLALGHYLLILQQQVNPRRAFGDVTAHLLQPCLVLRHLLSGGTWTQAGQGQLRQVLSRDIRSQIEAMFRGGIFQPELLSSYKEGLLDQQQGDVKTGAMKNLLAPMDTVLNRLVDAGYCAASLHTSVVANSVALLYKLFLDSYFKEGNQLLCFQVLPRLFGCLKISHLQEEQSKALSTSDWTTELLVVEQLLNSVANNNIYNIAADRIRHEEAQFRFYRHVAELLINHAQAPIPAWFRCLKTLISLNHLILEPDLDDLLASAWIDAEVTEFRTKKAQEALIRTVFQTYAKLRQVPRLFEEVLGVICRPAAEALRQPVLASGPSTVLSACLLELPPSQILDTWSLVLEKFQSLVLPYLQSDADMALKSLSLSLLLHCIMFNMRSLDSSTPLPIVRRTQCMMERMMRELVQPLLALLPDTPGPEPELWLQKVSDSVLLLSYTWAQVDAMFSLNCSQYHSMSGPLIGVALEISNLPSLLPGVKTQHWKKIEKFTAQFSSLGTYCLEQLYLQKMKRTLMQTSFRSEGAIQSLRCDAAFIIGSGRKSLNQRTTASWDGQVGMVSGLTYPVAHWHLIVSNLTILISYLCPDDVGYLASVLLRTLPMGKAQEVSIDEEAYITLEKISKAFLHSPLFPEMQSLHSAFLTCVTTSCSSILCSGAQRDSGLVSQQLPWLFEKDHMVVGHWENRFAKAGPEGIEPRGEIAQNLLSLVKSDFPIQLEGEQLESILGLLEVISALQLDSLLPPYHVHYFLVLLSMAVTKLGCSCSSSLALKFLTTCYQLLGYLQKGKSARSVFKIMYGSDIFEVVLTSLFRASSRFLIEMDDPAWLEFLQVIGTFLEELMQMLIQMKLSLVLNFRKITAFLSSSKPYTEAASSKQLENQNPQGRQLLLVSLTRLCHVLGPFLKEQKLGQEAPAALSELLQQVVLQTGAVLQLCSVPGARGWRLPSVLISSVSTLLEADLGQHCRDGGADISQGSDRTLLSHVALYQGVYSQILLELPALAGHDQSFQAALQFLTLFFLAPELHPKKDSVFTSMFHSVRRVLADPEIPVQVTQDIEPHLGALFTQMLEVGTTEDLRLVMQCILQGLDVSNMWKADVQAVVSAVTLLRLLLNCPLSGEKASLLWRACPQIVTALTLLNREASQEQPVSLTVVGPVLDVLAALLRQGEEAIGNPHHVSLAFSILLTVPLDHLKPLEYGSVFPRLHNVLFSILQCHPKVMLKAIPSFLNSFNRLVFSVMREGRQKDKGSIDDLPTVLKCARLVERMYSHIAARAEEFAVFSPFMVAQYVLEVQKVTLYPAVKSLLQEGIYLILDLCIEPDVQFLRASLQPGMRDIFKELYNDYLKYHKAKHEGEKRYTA
UniProt P21796, whole entry, looked up: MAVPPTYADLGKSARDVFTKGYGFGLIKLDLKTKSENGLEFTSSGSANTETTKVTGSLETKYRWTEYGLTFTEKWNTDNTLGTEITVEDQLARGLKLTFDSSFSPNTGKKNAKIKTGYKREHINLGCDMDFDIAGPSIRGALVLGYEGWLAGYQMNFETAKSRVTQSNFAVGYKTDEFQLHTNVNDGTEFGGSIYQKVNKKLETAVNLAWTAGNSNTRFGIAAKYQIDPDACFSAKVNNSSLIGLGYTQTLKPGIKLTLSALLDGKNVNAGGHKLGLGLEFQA
UniProt A6NIH7: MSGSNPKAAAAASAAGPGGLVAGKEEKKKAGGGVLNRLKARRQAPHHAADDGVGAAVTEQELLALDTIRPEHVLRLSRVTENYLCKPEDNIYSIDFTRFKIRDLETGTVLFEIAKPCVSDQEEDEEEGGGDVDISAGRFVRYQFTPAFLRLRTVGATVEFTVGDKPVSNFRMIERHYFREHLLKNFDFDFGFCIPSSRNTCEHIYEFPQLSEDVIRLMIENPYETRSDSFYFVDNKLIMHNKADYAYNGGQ

[1] = compound: Cc1nc(Nc2n[nH]c3c2CN(C(=O)N[C@H](CN(C)C)c2ccccc2)C3(C)C)c2sccc2n1
Method in brief: as §1

dasatinib = compound: Cc1nc(Nc2ncc(C(=O)Nc3c(C)cccc3Cl)s2)cc(N2CCN(CCO)CC2)n1 [dasatinib]
Method in brief: as §1

[2] = compound: Cc1ncc(-c2ccnc(Nc3ccc(S(C)(=O)=O)cc3)n2)n1C(C)C
Method in brief: as §1

[3] = compound: Cn1cc(-c2ccc3c(c2)CCN3C(=O)Cc2cccc(C(F)(F)F)c2)c2c(N)ncnc21
Method in brief: as §1

quisinostat = compound: Cn1cc(CNCC2CCN(c3ncc(C(=O)NO)cn3)CC2)c2ccccc21 [quisinostat]
Method in brief: as §1

tipifarnib = compound: Cn1cncc1[C@@](N)(c1ccc(Cl)cc1)c1ccc2c(c1)c(-c1cccc(Cl)c1)cc(=O)n2C [tipifarnib]
Method in brief: as §1

[4] = compound: NC(=O)Nc1cc(-c2cccc(F)c2)sc1C(=O)N[C@H]1CCCNC1
Method in brief: as §1

[5] = compound: NC(=O)c1cnc(N[C@@H]2CCCC[C@@H]2N)nc1Nc1cccc(-n2nccn2)c1
Method in brief: as §1

[6] = compound: NC1(c2ccc(-c3nc4ccn5c(=O)[nH]nc5c4cc3-c3ccccc3)cc2)CCC1
Method in brief: as §1

Measured: log2 fold change

UMAD1 (UniProt C9J7I0)
inactive: nilotinib -0.076 | [1] -0.011 | dasatinib 0.043 | [2] 0.471 | [3] -0.08 | quisinostat 0.036 | tipifarnib 0.08 | [4] -0.037 | [5] -0.199

UGT8 (UniProt Q16880)
inactive: nilotinib 0.135 | [1] 0.019 | dasatinib 0 | [2] -0.048 | [3] 0.043 | quisinostat -0.046 | tipifarnib 0.02 | [4] -0.09 | [5] -0.083 | [6] -0.048

UFL1 (UniProt O94874)
inactive: nilotinib 0.017 | [1] 0.008 | dasatinib -0.048 | [2] 0.033 | [3] 0.035 | quisinostat 0.014 | tipifarnib -0.007 | [4] 0.015 | [5] -0.027 | [6] -0.014

UTP4 (UniProt Q969X6)
inactive: nilotinib 0.006 | [1] -0.08 | dasatinib -0.016 | [2] -0.04 | [3] -0.003 | quisinostat 0.013 | tipifarnib 0.045 | [4] 0.048 | [5] -0.018 | [6] -0.009

USP28 isoform 2 (UniProt Q96RU2)
inactive: nilotinib -0.033 | [1] -0.009 | dasatinib -0.032 | [2] 0.026 | [3] -0.018 | quisinostat -0.082 | tipifarnib -0.005 | [4] -0.002 | [5] 0.012 | [6] 0.027

UQCRC2 (UniProt P22695)
inactive: nilotinib 0.034 | [1] -0.028 | dasatinib 0 | [2] 0.004 | [3] -0.043 | quisinostat 0.007 | tipifarnib -0.011 | [4] 0.02 | [5] -0.008 | [6] 0.011

UTP6 (UniProt Q9NYH9)
inactive: nilotinib 0.006 | [1] 0.032 | dasatinib 0.106 | [2] 0.045 | [3] -0.004 | quisinostat -0.113 | tipifarnib 0.005 | [4] 0.051 | [5] 0.143 | [6] 0.151

UGGT1 (UniProt Q9NYU2)
inactive: nilotinib 0.051 | [1] -0.014 | dasatinib 0.006 | [2] 0.015 | [3] -0.001 | quisinostat -0.005 | tipifarnib -0.02 | [4] -0.006 | [5] 0.003 | [6] -0.002

USP38 (UniProt Q8NB14)
inactive: nilotinib -0.016 | [1] -0.124 | dasatinib -0.046 | [2] -0.015 | [3] 0.047 | quisinostat -0.055 | tipifarnib 0.024 | [4] 0.065 | [5] 0.052

2 entries drawn at random from those above, as already listed:
UTP4 (UniProt Q969X6)
inactive: nilotinib 0.006 | [1] -0.08 | dasatinib -0.016 | [2] -0.04 | [3] -0.003 | quisinostat 0.013 | tipifarnib 0.045 | [4] 0.048 | [5] -0.018 | [6] -0.009

UQCRC2 (UniProt P22695)
inactive: nilotinib 0.034 | [1] -0.028 | dasatinib 0 | [2] 0.004 | [3] -0.043 | quisinostat 0.007 | tipifarnib -0.011 | [4] 0.02 | [5] -0.008 | [6] 0.011

Following part.

UPF2 (UniProt Q9HAU5)
inactive: nilotinib -0.011 | [1] 0.018 | dasatinib -0.014 | [2] -0.007 | [3] 0.009 | quisinostat 0 | tipifarnib 0.007 | [4] 0.015 | [5] -0.016 | [6] -0.008

UTP11 (UniProt Q9Y3A2)
inactive: nilotinib -0.13 | [1] -0.009 | dasatinib 0.027 | [2] 0.071 | [3] 0.038 | quisinostat -0.066 | tipifarnib 0.081 | [4] 0.029 | [5] 0.099

UNC93B1 (UniProt Q9H1C4)
inactive: nilotinib 0.022 | [1] 0.046 | dasatinib 0.059 | [2] -0.127 | [3] -0.052 | quisinostat 0 | tipifarnib 0.151 | [4] 0.023 | [5] 0.166 | [6] 0.04

UNC13D (UniProt Q70J99)
inactive: nilotinib 0.043 | [1] -0.014 | dasatinib -0.05 | [2] 0 | [3] 0 | quisinostat -0.079 | tipifarnib -0.006 | [4] 0.05 | [5] 0.022 | [6] -0.024

VCX3B (UniProt Q9H321)
inactive: nilotinib -0.009 | [1] 0.06 | dasatinib -0.1 | [2] 0.002 | [3] -0.033 | quisinostat 0.048 | tipifarnib 0.092 | [4] -0.044 | [5] -0.011 | [6] 0.007

UPF3B (UniProt Q9BZI7)
inactive: nilotinib -0.016 | [1] 0.012 | dasatinib 0.004 | [2] 0.014 | [3] 0.005 | quisinostat -0.013 | tipifarnib 0.014 | [4] 0.022 | [5] -0.025 | [6] -0.003

USP33 (UniProt Q8TEY7)
inactive: nilotinib 0.123 | [1] -0.047 | dasatinib -0.194 | [2] -0.172 | [3] 0.143 | quisinostat 0 | tipifarnib -0.287 | [4] -0.078

UTP15 (UniProt Q8TED0)
inactive: nilotinib 0.001 | [1] 0.002 | dasatinib 0 | [2] -0.024 | [3] -0.027 | quisinostat 0.007 | tipifarnib 0.003 | [4] -0.011 | [5] -0.044 | [6] 0.076

VASP (UniProt P50552)
inactive: nilotinib -0.025 | [1] -0.002 | dasatinib -0.061 | [2] -0.014 | [3] -0.001 | quisinostat 0.012 | tipifarnib 0.008 | [4] -0.012 | [5] -0.006 | [6] 0.013

UFC1 (UniProt Q9Y3C8)
inactive: nilotinib -0.051 | [1] 0.044 | dasatinib 0.025 | [2] -0.013 | [3] 0.021 | quisinostat 0.114 | tipifarnib 0.003 | [4] -0.038 | [5] -0.02 | [6] 0.039

VBP1 (UniProt P61758)
inactive: nilotinib -0.007 | [1] 0.002 | dasatinib 0.026 | [2] -0.008 | [3] 0.001 | quisinostat -0.026 | tipifarnib 0.003 | [4] -0.01 | [5] 0.013 | [6] 0.002

USP10 isoform 2 (UniProt Q14694)
inactive: nilotinib -0.022 | [1] 0.013 | dasatinib -0.058 | [2] 0.013 | [3] -0.013 | quisinostat -0.081 | tipifarnib -0.007 | [4] 0.034 | [5] -0.011 | [6] -0.012

USP1 (UniProt O94782)
inactive: nilotinib 0.044 | [1] 0.007 | dasatinib -0.034 | [2] 0.011 | [3] 0.016 | quisinostat -0.006 | tipifarnib -0.002 | [4] 0.03 | [5] -0.028 | [6] 0.026

UPF1 (UniProt Q92900)
inactive: nilotinib -0.009 | [1] -0.003 | dasatinib -0.01 | [2] 0.007 | [3] -0.003 | quisinostat 0.028 | tipifarnib 0.017 | [4] -0.025 | [5] -0.006 | [6] -0.013

UEVLD (UniProt Q8IX04)
inactive: nilotinib 0.009 | [1] -0.013 | dasatinib -0.027 | [2] 0.023 | [3] 0.033 | quisinostat -0.024 | tipifarnib -0.007 | [4] 0.001 | [5] -0.028 | [6] 0.025

UHRF1BP1L (UniProt A0JNW5)
inactive: nilotinib 0.015 | [1] -0.043 | dasatinib 0.006 | [2] 0.039 | [3] 0.004 | quisinostat -0.037 | tipifarnib -0.027 | [4] -0.001 | [5] 0.003 | [6] 0.003

URB2 (UniProt Q14146)
inactive: nilotinib -0.049 | [1] -0.1 | dasatinib 0.055 | [2] -0.023 | [3] 0.001 | quisinostat -0.024 | tipifarnib 0.12 | [4] 0.079 | [5] 0.037

VDAC1 (UniProt P21796)
inactive: nilotinib 0.041 | [1] -0.003 | dasatinib 0.004 | [2] 0.033 | [3] -0.018 | quisinostat -0.024 | tipifarnib 0 | [4] 0.003 | [5] -0.01 | [6] 0.016

USP8 (UniProt P40818)
inactive: nilotinib -0.014 | [1] -0.007 | dasatinib 0.005 | [2] 0.042 | [3] 0.024 | quisinostat -0.015 | tipifarnib -0.01 | [4] 0.016 | [5] -0.016 | [6] 0.026

UNC119B (UniProt A6NIH7)
inactive: nilotinib 0.046 | [1] -0.047 | dasatinib -0.066 | [2] 0.061 | [3] -0.008 | quisinostat 0.24 | tipifarnib -0.068 | [4] -0.043 | [5] -0.03 | [6] 0.029

UTP20 (UniProt O75691)
inactive: nilotinib 0.05 | [1] 0.034 | dasatinib 0.081 | [2] 0.074 | [3] 0.078 | quisinostat 0.034 | tipifarnib 0.023 | [4] 0.045 | [5] 0.002 | [6] -0.055

From the supplement of paper PMC10849652
